Results taken from publication PMC11464680, “ABIOTIC STRESS GENE 1 mediates aroma volatiles accumulation by activating MdLOX1a in apple”.
Negatives hold for the conditions tested. At least one verdict rests on a figure or table, not on a statement of the authors. Where a protein sequence is shown, tags need not be part of it. The exact form of at least one protein or probe is not confirmed.

Molecular target: T1, MdASG1-GST (UniProt A0A498KLW2)
T1 sequence (looked up, limits assumed): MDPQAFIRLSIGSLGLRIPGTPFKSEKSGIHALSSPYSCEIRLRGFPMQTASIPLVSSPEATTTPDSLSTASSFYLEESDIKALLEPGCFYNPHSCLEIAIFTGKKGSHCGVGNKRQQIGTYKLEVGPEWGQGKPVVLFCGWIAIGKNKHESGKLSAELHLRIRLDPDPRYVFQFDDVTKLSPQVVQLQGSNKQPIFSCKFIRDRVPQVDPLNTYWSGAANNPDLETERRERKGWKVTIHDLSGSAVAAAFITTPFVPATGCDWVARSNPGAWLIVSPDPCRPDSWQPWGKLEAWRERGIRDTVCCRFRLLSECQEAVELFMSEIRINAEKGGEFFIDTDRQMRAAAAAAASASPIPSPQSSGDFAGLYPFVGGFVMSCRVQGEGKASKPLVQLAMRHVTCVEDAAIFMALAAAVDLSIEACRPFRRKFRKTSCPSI
Assay: EMSA
Conditions: LightShift Chemiluminescent EMSA kit binding buffer (composition, salt and pH not stated), 24 °C, 15 min; recombinant protein; protein details: GST (pGEX-4T, N-terminal); label: biotin

Row | Sequence | binding result
1 | AATTACGCAGGGATTACATCTATGTCATCTTAATTTCGGGATAAACGATTTTGTAC (double strand) [p4MdLOX1a-2-M4] | binds
2 | CAAGGAGTGTGTGGATAGCACACCCTGTGAGGAAATTGGCACTTTTCACATTATAAAACATAAATT (double strand) [p4MdLOX1a-1] | no binding
3 | AATTACGCAGGGATTACATCTATGTCATCTTAAAGCCAGCTAACACGATTTTGTAC (double strand) [p4MdLOX1a-2-M5] | binds
4 | GACTTTTTCACGTTTTCCCCTTTAAATACGACCACCCTTCATTGAACTCTTCCATGCAAAGTTTCGA (double strand) [p4MdLOX1a-3] | no binding
5 | AATTACGCAGGTGTCATCTTAAAGCCAGCTAACTTTCGGGATAAACGATTTTGTAC (double strand) [p4MdLOX1a-2-M2] | binds
6 | AATTACGCAGGGATTACATCTAAGCCAGCTAACTTTCGGGATAAACGATTTTGTAC (double strand) [p4MdLOX1a-2-M3] | binds
7 | CTTTCAATTTATTTCACAATTATTCACAACATTCTTTGCTTAATTAGTTCTTGGAAACTAGAACACA (double strand) [p4MdLOX1a-4] | no binding

Same assay, conditions: cold probe weakened binding (Fig. 3e, hot probe M1 implied by mutant name); LightShift Chemiluminescent EMSA kit binding buffer (composition, salt and pH not stated), 24 °C, 15 min; recombinant protein; protein details: GST (pGEX-4T, N-terminal); label: biotin

Row | Sequence | binding result
8 | GATTACATCTATGTCATCTTAAAGCCAGCTAACTTTCGGGATAAACGATTTTGTAC (double strand) [p4MdLOX1a-2-M1] | binds
